{
  "source": "ChEMBL document CHEMBL4689842",
  "about": "“EUbOPEN Chemogenomics Library wave 1” (2021)",
  "tested_on": "HEK-293T",
  "assay": "Multiplex assay against HEK293T",
  "format": "toxicity, cell-based",
  "conditions": "human",
  "procedure,_shortened": "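Values for tubulin, mitochondrial-mass and membrane-permeability phenotypes are per cents of cells with healthy nuclei. These cells were identified by CellPathfinder machine-learning gating of live cells that had been stained at seeding with Hoechst33342, BioTracker Green Microtubule Cytoskeleton Dye, MitoTracker Red and Annexin V Alexa Fluor 680 and imaged on a CQ1 microscope at 37°C and 5% CO2 after compound addition. The gating first set Hoechst high-intensity objects apart from normal cells, then split normal cells into healthy, pyknosed or fragmented nuclei, and pyknosed cells into mitotic or apoptotic.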",
  "data": [
    {"compound": "Nc1ccc(C(=O)Nc2cccc(-c3nc(N4CCOCC4)c4oc5ncccc5c4n3)c2)cn1", "values": [
      {"measurement": "Population Membrane Permeable-Phenotype (%)", "setting": "0 h, 1 µM, compound concentration 1 uM, replicate 1", "result": 4, "unit": "%"},
      {"measurement": "Population Membrane Permeable-Phenotype (%)", "setting": "0 h, 1 µM, compound concentration 1 uM, replicate 2", "result": 0, "unit": "%"},
      {"measurement": "Population Membrane Permeable-Phenotype (%)", "setting": "0 h, 10 µM, compound concentration 10 uM, replicate 1", "result": 0, "unit": "%"},
      {"measurement": "Population Membrane Permeable-Phenotype (%)", "setting": "0 h, 10 µM, compound concentration 10 uM, replicate 2", "result": 1, "unit": "%"},
      {"measurement": "Population Membrane Permeable-Phenotype (%)", "setting": "12 h, 1 µM, compound concentration 1 uM, replicate 1", "result": 5, "unit": "%"},
      {"measurement": "Population Membrane Permeable-Phenotype (%)", "setting": "12 h, 1 µM, compound concentration 1 uM, replicate 2", "result": 26, "unit": "%"},
      {"measurement": "Population Membrane Permeable-Phenotype (%)", "setting": "12 h, 10 µM, compound concentration 10 uM, replicate 1", "result": 17, "unit": "%"},
      {"measurement": "Population Membrane Permeable-Phenotype (%)", "setting": "12 h, 10 µM, compound concentration 10 uM, replicate 2", "result": 4, "unit": "%"},
      {"measurement": "Population Membrane Permeable-Phenotype (%)", "setting": "24 h, 1 µM, compound concentration 1 uM, replicate 1", "result": 4, "unit": "%"},
      {"measurement": "Population Membrane Permeable-Phenotype (%)", "setting": "24 h, 1 µM, compound concentration 1 uM, replicate 2", "result": 15, "unit": "%"},
      {"measurement": "Population Membrane Permeable-Phenotype (%)", "setting": "24 h, 10 µM, compound concentration 10 uM, replicate 1", "result": 4, "unit": "%"},
      {"measurement": "Population Membrane Permeable-Phenotype (%)", "setting": "24 h, 10 µM, compound concentration 10 uM, replicate 2", "result": 6, "unit": "%"},
      {"measurement": "Population Membrane Permeable-Phenotype (%)", "setting": "48 h, 1 µM, compound concentration 1 uM, replicate 1", "result": 4, "unit": "%"},
      {"measurement": "Population Membrane Permeable-Phenotype (%)", "setting": "48 h, 1 µM, compound concentration 1 uM, replicate 2", "result": 10, "unit": "%"},
      {"measurement": "Population Membrane Permeable-Phenotype (%)", "setting": "48 h, 10 µM, compound concentration 10 uM, replicate 1", "result": 5, "unit": "%"},
      {"measurement": "Population Membrane Permeable-Phenotype (%)", "setting": "48 h, 10 µM, compound concentration 10 uM, replicate 2", "result": 11, "unit": "%"}
    ]}
  ]
}
